This data set in a line: Cytotoxicity assay (MTS, 7 days). Conditions: human, concentrations up to 10 µM, two independent experiments, read-out: Cytotoxicity against NHDF (7 Days) CC50. Format: cell-based. The method, then: For that, 96-well tissue plates containing NHDF cells were treated with different concentrations of compounds up to 10 µM for seven days. Control cells were incubated with 0.5% DMSO. At the end of the treatment, cell viability was then analyzed through the colorimetric method of MTS (Promega, Madison, WI, USA). […] Data were analyzed using GraphPad Prim 8.0 software. IC50 and CC50 calculations were performed by fitting the values of proliferation/viability in percentage to a non-linear curve followed by dose–response inhibition analysis through log(inhibitor) vs. normalized response.

In PMC10747034 (Tropical Medicine and Infectious Disease, 2023) one finds CC50 data, which are given here for one compound.

One may read the CC50 as the concentration at which the toxic effect on the cells reaches its halfway point.

Take `CCC[C@@H]1C[C@@H](C(=O)N[C@@H]([C@H]2O[C@H](SC)[C@H](O)[C@@H](O)[C@H]2O)[C@H](C)Cl)N(C)C1` [Clindamycin]: the CC50 at 7 days came to 8.84 µM.
